This is one part of the list. Many values rest on one well or one pass, so single values are uncertain.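 The apoptosis fraction was the count of cleaved-PARP antibody-stained nuclei relative to all DNA-stained nuclei, imaged in 1,536-well plates. Screening doses were set so most cells survived, and baseline and induced cleaved-PARP levels vary greatly across cell lines.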
Experiments:
Experiment in all cases: cleaved PARP positive nuclei fraction relative to DMSO control; melanoma cells; higher = more apoptosis
Conditions in all cases: library dose: low library concentration; 72 h
MZ2-MEL = test system: MZ2-MEL
MeWo = test system: MeWo
RPMI7951 = test system: RPMI7951
RVH-421 = test system: RVH-421
SkMel28 = test system: SkMel28
SkMel30 = test system: SkMel30
SkMel5 = test system: SkMel5
UACC257 = test system: UACC257
UACC62 = test system: UACC62

SMILES | cleaved PARP positive nuclei fraction (MZ2-MEL) | cleaved PARP positive nuclei fraction (MeWo) | cleaved PARP positive nuclei fraction (RPMI7951) | cleaved PARP positive nuclei fraction (RVH-421) | cleaved PARP positive nuclei fraction (SkMel28) | cleaved PARP positive nuclei fraction (SkMel30) | cleaved PARP positive nuclei fraction (SkMel5) | cleaved PARP positive nuclei fraction (UACC257) | cleaved PARP positive nuclei fraction (UACC62)
C[C@]12O[C@H](C[C@]1(O)CO)n1c3ccccc3c3c4c(c5c6ccccc6n2c5c31)CNC4=O [Lestaurtinib] + C=CCn1c(=O)c2cnc(Nc3ccc(N4CCN(C)CC4)cc3)nc2n1-c1cccc(C(C)(C)O)n1 [MK1775] (first compound 0.004 µM, partner dose 0.02 µM) | 79.2% | 125% | 83.9% | 118% | 141% | 96.6% | 51.6% | 80.7% | 141%
C[C@]12O[C@H](C[C@]1(O)CO)n1c3ccccc3c3c4c(c5c6ccccc6n2c5c31)CNC4=O [Lestaurtinib] + c1cc(-c2cnn3cc(-c4ccc(OCCN5CCCCC5)cc4)cnc23)ccn1 [Dorsomorphin] (first compound 0.004 µM, partner dose 0.4 µM) | 92.4% | 124% | 85.5% | 230% | 62.3% | 454% | 91.7% | 81.3% | 79.3%
C[C@@H]1CCN(C(=O)CC#N)C[C@@H]1N(C)c1ncnc2[nH]ccc12 + C/C(O)=C(\C#N)C(=O)Nc1cc(Br)ccc1Br [LFM-A13] (first compound 1 µM, partner dose 2 µM) | 90.6% | 50.8% | 24.7% | 103% | 73.1% | 62.6% | 83% | 183% | 123%
C[C@]12O[C@H](C[C@]1(O)CO)n1c3ccccc3c3c4c(c5c6ccccc6n2c5c31)CNC4=O [Lestaurtinib] + Oc1nc(-c2ccc(C(F)(F)F)cc2)nc2c1CSCC2 [XAV939] (first compound 0.004 µM, partner dose 2 µM) | 102% | 95.4% | 52.3% | 248% | 169% | 178% | 88.1% | 88.9% | 90.3%
NC(=O)Nc1cc(-c2cccc(F)c2)sc1C(=O)N[C@H]1CCCNC1 + C/C(O)=C(\C#N)C(=O)Nc1cc(Br)ccc1Br [LFM-A13] (first compound 0.02 µM, partner dose 2 µM) | 71.8% | 170% | 21.9% | 34.7% | 138% | 31.6% | 69.2% | 121% | 24.5%
COc1cc2c(Oc3ccc4[nH]c(C)cc4c3F)ncnc2cc1OCCCN1CCCC1 [cediranib] + Cc1cc(SCc2sc(-c3ccc(C(F)(F)F)c(F)c3)nc2C)ccc1OCC(=O)O [GW0742] (first compound 0.4 µM, partner dose 2 µM) | 137% | 62.8% | 75.2% | 62% | 57.5% | 53.4% | 188% | 151% | 39%
